Measurements as given in article PMC11079016.
Results are given in words; binding and its absence hold for the method and conditions named. In cells and extracts the contact can be indirect. Some results given as binding are weak or reduced against the parent protein; the word gives no strength.

Amino acid sequences for entries named in this document (tags omitted). Residues count along the entry.
UniProt Q9NZQ7, residues 19-290: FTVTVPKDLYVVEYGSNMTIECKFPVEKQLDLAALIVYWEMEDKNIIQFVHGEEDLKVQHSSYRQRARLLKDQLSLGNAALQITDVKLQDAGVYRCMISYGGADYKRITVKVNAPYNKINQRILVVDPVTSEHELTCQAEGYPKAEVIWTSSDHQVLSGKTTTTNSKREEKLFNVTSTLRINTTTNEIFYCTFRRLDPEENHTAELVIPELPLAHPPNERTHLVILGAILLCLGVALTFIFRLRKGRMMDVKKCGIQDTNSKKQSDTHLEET

Target: exogenous Flag-tagged PD-L1 (UniProt Q9NZQ7)
Assay: co-IP; immunoprecipitation with an anti-Flag antibody from aT-sEV-treated CAL27 cells expressing exogenous Flag-tagged PD-L1; with or without aT-sEV treatment

binding: binds
Substance: HRS (ESCRT-0 subunit; also known as HGS) (from UniProt O14964-1 1-777)
